Some peptides are written in HELM: one residue between dots, names in brackets for other building blocks, links after the first $.
Assay: general procedure: Fmoc solid-phase peptide synthesis; Rink amide MBHA resin, initial loading 0.61 mmol/g; DCC, HBTU, HOBT, DIEA (listed as peptide synthesis reagents)
Settings: whole synthesis, RP-HPLC on analytical Vydac C18 column

Substance | crude HPLC purity
PEPTIDE1{W.R.W.R.[am]}$$$$V2.0 | 95%
PEPTIDE1{W.R.W.R.W.R.[am]}$$$$V2.0 | 95%

— paper PMC3841161 (PLoS ONE, 2013)
